ChEMBL document CHEMBL1649571, “In vitro activity of TR-700, the active ingredient of the antibacterial prodrug TR-701, a novel oxazolidinone antibacterial agent” (2009)
≈ marks a conversion by molar mass, not a printed value.

How the values were obtained:
Enterococcus faecalis [1] = assay: Antibacterial activity against vancomycin-susceptible Enterococcus faecalis by CLSI M7-A7 broth microdilution method; format: functional
Method in brief: (§1)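 Reference broth microdilution MIC under aerobic conditions on recent (2005–2008) clinical isolates from U.S. and non-U.S. sites. QC strains run alongside, required to fall within published CLSI ranges.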

Enterococcus faecalis [2] = assay: Antibacterial activity against vancomycin-resistant Enterococcus faecalis by CLSI M7-A7 broth microdilution method; format: functional; method in brief: as §1

SMILES: CN[C@H](CC(C)C)C(=O)N[C@H]1C(=O)N[C@@H](CC(N)=O)C(=O)N[C@H]2C(=O)N[C@H]3C(=O)N[C@H](C(=O)N[C@H](C(=O)O)c4cc(O)cc(O)c4-c4cc3ccc4O)[C@H](O)c3ccc(c(Cl)c3)Oc3cc2cc(c3O[C@@H]2O[C@H](CO)[C@@H](O)[C@H](O)[C@H]2O[C@H]2C[C@](C)(N)[C@H](O)[C@H](C)O2)Oc2ccc(cc2Cl)[C@H]1O [VANCOMYCIN]
- MIC (Enterococcus faecalis [1]): 0.5 µg/mL (≈ 0.345 µM)
- MIC (Enterococcus faecalis [2]): > 4 µg/mL
